# Data reported in EP4491627A1, “SYNTHETIC CA[…] ON CHROMENO[…] AND USE THEREOF” (Consejo Superior De Investigaciones Científicas, priority 2023, dated 2025).
# By UniProt entry, the sequences of proteins in these tests, tags left out.
# UniProt P21554, whole entry, species assumed: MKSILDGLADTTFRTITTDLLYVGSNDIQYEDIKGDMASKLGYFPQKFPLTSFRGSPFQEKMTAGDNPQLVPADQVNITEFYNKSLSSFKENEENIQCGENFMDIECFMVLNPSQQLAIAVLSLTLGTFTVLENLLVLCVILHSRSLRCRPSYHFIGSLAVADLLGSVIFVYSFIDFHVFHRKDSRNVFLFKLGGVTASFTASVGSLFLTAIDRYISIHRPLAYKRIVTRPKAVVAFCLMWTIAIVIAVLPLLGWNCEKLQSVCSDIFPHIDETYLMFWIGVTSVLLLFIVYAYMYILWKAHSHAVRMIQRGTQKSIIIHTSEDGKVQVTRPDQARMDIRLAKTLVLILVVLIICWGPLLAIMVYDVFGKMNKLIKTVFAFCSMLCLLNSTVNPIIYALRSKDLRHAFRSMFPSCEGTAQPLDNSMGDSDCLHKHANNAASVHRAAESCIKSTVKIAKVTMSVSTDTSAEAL
# UniProt P34972, whole entry: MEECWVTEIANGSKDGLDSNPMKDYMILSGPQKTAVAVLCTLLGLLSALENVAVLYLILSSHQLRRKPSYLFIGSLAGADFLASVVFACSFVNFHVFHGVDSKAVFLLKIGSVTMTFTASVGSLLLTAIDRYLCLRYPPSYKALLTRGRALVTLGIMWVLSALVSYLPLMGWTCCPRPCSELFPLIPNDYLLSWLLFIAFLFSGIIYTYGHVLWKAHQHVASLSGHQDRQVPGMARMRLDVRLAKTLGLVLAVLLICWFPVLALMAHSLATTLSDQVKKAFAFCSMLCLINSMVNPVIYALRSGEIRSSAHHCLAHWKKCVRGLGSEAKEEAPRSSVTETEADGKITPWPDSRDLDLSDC
# Some entries share one result that the patent states for a list of compounds.
# How the values were obtained:
# Type in all cases: cell-based
# [1] = molecular target: T1, CB1 (Homo sapiens, UniProt P21554); assay: cAMP assay in HEK293 cells transfected with CB1; set-up: expressed in transfected cells; host or cells: HEK-293T (HEK293); details: 0.5 µM forskolin, Figure 2A
# [2] = molecular target: T2, CB2 (Homo sapiens, UniProt P34972); assay: β-arrestin2 recruitment assay (BRET) in HEK293-CB2 cells; set-up: expressed in transfected cells; host or cells: HEK-293T; details: Figure 4B
# [3] = molecular target: T2, CB2; assay: cAMP assay in HEK293 cells transfected with CB2; set-up: expressed in transfected cells; host or cells: HEK-293T (HEK293); details: 0.5 µM forskolin, Figure 2B
# [4] = molecular target: T1, CB1; assay: β-arrestin2 recruitment assay (BRET) in HEK293-CB1 cells; set-up: expressed in transfected cells; host or cells: HEK-293T; details: Figure 4A
# [5] = molecular target: T1, CB1; assay: MAPK (ERK1/2 phosphorylation) assay in HEK293-CB1 cells; set-up: expressed in transfected cells; host or cells: HEK-293T (HEK293); details: Figure 3A
# [6] = molecular target: T2, CB2; assay: MAPK (ERK1/2 phosphorylation) assay in HEK293-CB2 cells; set-up: expressed in transfected cells; host or cells: HEK-293T (HEK293); details: Figure 3B
SMILES,CB1 agonism in cAMP assays [1],"β-arrestin2 recruitment, HEK293-CB2 cells [2]",CB2 agonism in cAMP assays [3],"β-arrestin2 recruitment, HEK293-CB1 cells [4]","agonism in MAPK assays, HEK293-CB1 cells [5]","agonism in MAPK assays, HEK293-CB2 cells [6]"
"CCCCCCC(C)(C)c1cc(O)c2c(c1)OC(C)(C)c1cncnc1-2 [Example 1, 8-(1,1-Dimethylheptyl)-5,5-dimethylchromeno[4,3-d]pyrimidin-10-ol]",potent and efficacious agonists,recruit β-arrestin2,potent and efficacious agonists,recruit β-arrestin2,act as agonists,act as agonists
"CCCCCCC(C)(C)c1cc(OC)c2c(c1)OC(C)(C)c1cncnc1-2 [Example 2, 8-(1,1-Dimethylheptyl)-10-methoxy-5,5-dimethylchromeno[4,3-d]pyrimidine]",potent and efficacious agonists,recruit β-arrestin2,potent and efficacious agonists,recruit β-arrestin2,act as agonists,act as agonists
"CCCCCCC(C)(C)c1cc(OCc2ccccc2)c2c(c1)OC(C)(C)c1cncnc1-2 [Example 3, 10-Benzyloxy-8-(1,1-dimethylheptyl)-5,5-dimethylchromeno[4,3-d]pyrimidine]",potent and efficacious agonists,recruit β-arrestin2,potent and efficacious agonists,recruit β-arrestin2,act as agonists,act as agonists
